Experimental data from the supplement of paper PMC4604168 (melanoma cell lines).
The list shows a part of the results. Repeats are few or missing, and single values can be far off.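 Imaging used 1,536-well plates; nuclei positive for cleaved PARP by antibody were divided by total DNA-stained nuclei to yield the apoptosis fraction. Doses for screening kept most cells viable, and cell lines differ markedly in resting and induced cleaved-PARP levels.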

How the values were obtained:
Assay in all cases: cleaved PARP positive nuclei fraction relative to DMSO control; melanoma cells; higher = more apoptosis
Conditions in all cases: library dose: low library concentration; 72 h
[1] = tested on: COLO792
[2] = tested on: COLO800
[3] = tested on: COLO829
[4] = tested on: G361
[5] = tested on: IPC-298
[6] = tested on: IST-MEL1
[7] = tested on: LOXIMVI
[8] = tested on: MEL-HO
[9] = tested on: LB2518-MEL

Structure (SMILES) | cleaved PARP positive nuclei fraction [1] [%] | cleaved PARP positive nuclei fraction [2] [%] | cleaved PARP positive nuclei fraction [3] [%] | cleaved PARP positive nuclei fraction [4] [%] | cleaved PARP positive nuclei fraction [5] [%] | cleaved PARP positive nuclei fraction [6] [%] | cleaved PARP positive nuclei fraction [7] [%] | cleaved PARP positive nuclei fraction [8] [%] | cleaved PARP positive nuclei fraction [9] [%]
N.N.[Cl][Pt][Cl] [cisplatin] + C=CCn1c(=O)c2cnc(Nc3ccc(N4CCN(C)CC4)cc3)nc2n1-c1cccc(C(C)(C)O)n1 [MK1775] (first compound 1.6 µM, partner dose 0.02 µM) | 130 | 160 | 151 | 131 | 91.6 | 77.7 | 58.6 | 150 | 
Cc1cc(Nc2cc(N3CCN(C)CC3)nc(Sc3ccc(NC(=O)C4CC4)cc3)n2)n[nH]1 [Tozasertib] + Cc1cc(SCc2sc(-c3ccc(C(F)(F)F)c(F)c3)nc2C)ccc1OCC(=O)O [GW0742] (first compound 0.006 µM, partner dose 2 µM) | 64.4 | 93.4 | 61.7 | 111 | 139 | 160 | 61.9 |  | 
N.N.[Cl][Pt][Cl] [cisplatin] + Cc1cc(N2CCOCC2)cc2[nH]c(-c3c(NC[C@@H](O)c4cccc(Cl)c4)cc[nH]c3=O)nc12 [BMS536924] (first compound 1.6 µM, partner dose 0.2 µM) | 74.2 | 130 | 80.4 | 143 | 101 | 101 | 390 | 68.8 | 201
Cn1cc(C2=C(c3cn(C4CCN(Cc5ccccn5)CC4)c4ccccc34)C(=O)NC2=O)c2ccccc21 [Enzastaurin] + CC(C)(C)c1cnc(CSc2cnc(NC(=O)C3CCNCC3)s2)o1 [SNS-032] (first compound 0.8 µM, partner dose 0.01 µM) | 198 | 111 | 26.6 | 170 | 90.4 | 201 | 104 | 61.1 | 
Cn1cc(C2=C(c3cn(C4CCN(Cc5ccccn5)CC4)c4ccccc34)C(=O)NC2=O)c2ccccc21 [Enzastaurin] + NCC(=O)Nc1ccc(-n2nc(C(F)(F)F)cc2-c2ccc3c(ccc4ccccc43)c2)cc1 [OSU03012] (first compound 0.8 µM, partner dose 1 µM) | 93.5 | 261 | 118 | 68.1 | 127 | 347 | 165 | 131 | 47.6
Nc1ccn([C@@H]2O[C@H](CO)[C@@H](O)C2(F)F)c(=O)n1 [gemcitabine] + Cc1cc(SCc2sc(-c3ccc(C(F)(F)F)c(F)c3)nc2C)ccc1OCC(=O)O [GW0742] (first compound 0.0004 µM, partner dose 2 µM) | 85 | 191 | 150 | 102 | 84.1 | 151 | 368 |  | 
N.N.[Cl][Pt][Cl] [cisplatin] + COc1cc(Nc2ncc(F)c(Nc3ccc4c(n3)NC(=O)C(C)(C)O4)n2)cc(OC)c1OC [Tamatinib] (first compound 1.6 µM, partner dose 0.4 µM) | 297 | 78.9 | 124 | 144 | 93.8 | 49.4 | 36.7 | 247 | 92.6
CN1CCN(c2ccc3nc(-c4c(N)c5c(F)cccc5[nH]c4=O)[nH]c3c2)CC1 [Dovitinib] + Cc1cc(SCc2sc(-c3ccc(C(F)(F)F)c(F)c3)nc2C)ccc1OCC(=O)O [GW0742] (first compound 0.1 µM, partner dose 2 µM) | 32 | 248 | 145 | 86.3 | 93.1 | 107 | 146 |  | 
CC(C)C[C@H](NC(=O)[C@H](Cc1ccccc1)NC(=O)c1cnccn1)B(O)O [Bortezomib] + Cc1cc(SCc2sc(-c3ccc(C(F)(F)F)c(F)c3)nc2C)ccc1OCC(=O)O [GW0742] (first compound 0.001 µM, partner dose 2 µM) | 142 | 34.4 | 270 | 1960 | 54.1 | 260 | 77.5 |  | 
N.N.[Cl][Pt][Cl] [cisplatin] + CN(NC(=O)CC(=O)NN(C)C(=S)c1ccccc1)C(=S)c1ccccc1 [STA4783] (first compound 1.6 µM, partner dose 0.006 µM) | 149 | 58.5 | 83.1 | 129 | 43.5 | 22 | 85.7 | 172 | 49.1
N.N.[Cl][Pt][Cl] [cisplatin] + CN(C)S(=O)(=O)c1ccc2c(c1)/C(=C/c1cc3c([nH]1)CCCC3)C(=O)N2 [SU6656] (first compound 1.6 µM, partner dose 0.4 µM) | 144 | 23.6 | 74.2 | 65.1 | 43.7 | 107 | 26.9 | 98.7 | 54.5
N.N.[Cl][Pt][Cl] [cisplatin] + O=C(O)c1ccc(-c2c[nH]c3ncc(-c4ccccc4)cc23)cc1C1CCCC1 [GSK650394] (first compound 1.6 µM, partner dose 0.16 µM) | 55.5 | 121 | 70.4 | 109 | 376 | 107 | 53.7 | 83.3 | 
O=C(O)c1ccc2c(c1)nc(Nc1cccc(Cl)c1)c1ccncc12 + C/C(O)=C(\C#N)C(=O)Nc1cc(Br)ccc1Br [LFM-A13] (first compound 0.4 µM, partner dose 2 µM) | 198 | 75.5 | 206 | 82.8 | 98 | 66 | 46.1 |  | 
Cn1cc(C2=C(c3cn(C4CCN(Cc5ccccn5)CC4)c4ccccc34)C(=O)NC2=O)c2ccccc21 [Enzastaurin] + Cc1cc([N+](=O)[O-])ccc1NS(=O)(=O)c1cc(Cl)ccc1Cl [FH535] (first compound 0.8 µM, partner dose 1 µM) | 115 | 94.2 | 61.4 | 102 | 278 | 86.3 | 95.8 |  | 
N.N.[Cl][Pt][Cl] [cisplatin] + O=C(CCCCCCC(=O)Nc1ccccc1)NO [vorinostat] (first compound 1.6 µM, partner dose 0.08 µM) | 146 | 80.3 | 142 | 74.3 | 136 | 107 | 21.8 | 74 | 66.9
N.N.[Cl][Pt][Cl] [cisplatin] + OCCn1cc(-c2cnc3nnn(Cc4ccc5ncccc5c4)c3n2)cn1 [PF04217903] (first compound 1.6 µM, partner dose 1 µM) | 165 | 126 | 233 | 134 | 30.9 | 141 | 61.2 | 45.4 | 47.5
C[C@]12O[C@H](C[C@]1(O)CO)n1c3ccccc3c3c4c(c5c6ccccc6n2c5c31)CNC4=O [Lestaurtinib] + CC(C)(C)c1cnc(CSc2cnc(NC(=O)C3CCNCC3)s2)o1 [SNS-032] (first compound 0.004 µM, partner dose 0.01 µM) | 70.7 | 290 | 77 | 148 | 47 | 95 | 94.3 | 64.2 | 51.7
N.N.[Cl][Pt][Cl] [cisplatin] + O=C(Oc1ccc([N+](=O)[O-])cc1)N1CCC(C(O)(c2ccc3c(c2)OCO3)c2ccc3c(c2)OCO3)CC1 [JZL184] (first compound 1.6 µM, partner dose 1 µM) | 111 | 41.2 | 49.2 | 163 | 129 | 89.3 | 79.4 |  | 
C[As](C)SC[C@H](NC(=O)CC[C@H](N)C(=O)O)C(=O)NCC(=O)O [Darinaparsin] + NCC(=O)Nc1ccc(-n2nc(C(F)(F)F)cc2-c2ccc3c(ccc4ccccc43)c2)cc1 [OSU03012] (first compound 0.4 µM, partner dose 1 µM) | 44.5 | 165 | 134 | 29.8 | 65.3 | 258 | 106 | 71.2 | 84.2
C[C@]12O[C@H](C[C@]1(O)CO)n1c3ccccc3c3c4c(c5c6ccccc6n2c5c31)CNC4=O [Lestaurtinib] + Cc1cc(N2CCOCC2)cc2[nH]c(-c3c(NC[C@@H](O)c4cccc(Cl)c4)cc[nH]c3=O)nc12 [BMS536924] (first compound 0.004 µM, partner dose 0.2 µM) | 105 | 53.6 | 133 | 134 | 44.6 | 115 | 26.1 | 45.1 | 54.7
C[As](C)SC[C@H](NC(=O)CC[C@H](N)C(=O)O)C(=O)NCC(=O)O [Darinaparsin] + NC(=O)Nc1cc(-c2cccc(F)c2)sc1C(=O)N[C@H]1CCCNC1 [AZD7762] (first compound 0.4 µM, partner dose 0.02 µM) | 127 | 85 | 106 | 55.3 | 88.6 | 94.8 | 39.5 | 27.5 | 62.6

Whole records from above. Values in the order: cleaved PARP positive nuclei fraction [1] [%]	cleaved PARP positive nuclei fraction [2] [%]	cleaved PARP positive nuclei fraction [3] [%]	cleaved PARP positive nuclei fraction [4] [%]	cleaved PARP positive nuclei fraction [5] [%]	cleaved PARP positive nuclei fraction [6] [%]	cleaved PARP positive nuclei fraction [7] [%]	cleaved PARP positive nuclei fraction [8] [%]	cleaved PARP positive nuclei fraction [9] [%]
N.N.[Cl][Pt][Cl] [cisplatin] + OCCn1cc(-c2cnc3nnn(Cc4ccc5ncccc5c4)c3n2)cn1 [PF04217903] (first compound 1.6 µM, partner dose 1 µM) is listed with 165	126	233	134	30.9	141	61.2	45.4	47.5
Cn1cc(C2=C(c3cn(C4CCN(Cc5ccccn5)CC4)c4ccccc34)C(=O)NC2=O)c2ccccc21 [Enzastaurin] + NCC(=O)Nc1ccc(-n2nc(C(F)(F)F)cc2-c2ccc3c(ccc4ccccc43)c2)cc1 [OSU03012] (first compound 0.8 µM, partner dose 1 µM) is listed with 93.5	261	118	68.1	127	347	165	131	47.6
